Taken from: PubChem BioAssay AID743121 (NCATS, 2013)
This is a random part of about 26,000 reagents. Over the whole deposit, 167 (0.63%) are marked active. 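Calls are per gene from RSA p-values that are not deposited; an individual active-marked siRNA can sensitise only weakly.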 The numbers tell different reagents against one gene apart. Not all columns of the deposit are shown.

Screen: 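Knock-downs that sensitise breast cancer cells to camptothecin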 (primary screen)
Cell system: MDA-MB-231 cells, a human breast cancer line
Reagent: single siRNA against human genes, 20 nM siRNA (0.8 pmol per well)
Timing: 120 h (drug added 48 h after transfection, read 72 h later)
Treatment: camptothecin 20 nM (about EC30) for 72 h; vehicle 0.1% DMSO in parallel plates
Detection: 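CellTiter-Glo ATP signal, scaled to control siRNA as percent viability; sensitisation given as log2 of untreated divided by camptothecin-treated viability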
Scale: log2 vehicle/camptothecin viability: higher = stronger sensitisation to camptothecin
Hit rule: 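Active genes have an RSA gene-level p-value below 0.001, computed from the ratios of their separate siRNAs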

RAB18 #1 — log2 vehicle/camptothecin viability = -0.213; call = inactive
RAB18 #2 — log2 vehicle/camptothecin viability = -0.149; call = inactive
RAB18 #3 — log2 vehicle/camptothecin viability = 0.33; call = inactive
FBXW12 #1 — log2 vehicle/camptothecin viability = -0.116; call = inactive
FBXW12 #2 — log2 vehicle/camptothecin viability = 0.444; call = inactive
FBXW12 #3 — log2 vehicle/camptothecin viability = -0.201; call = inactive
FBXW12 #4 — log2 vehicle/camptothecin viability = -0.375; call = inactive
TYRO3 #1 — log2 vehicle/camptothecin viability = 0.177; call = inactive
TYRO3 #2 — log2 vehicle/camptothecin viability = -0.00811; call = inactive
TYRO3 #3 — log2 vehicle/camptothecin viability = -0.505; call = inactive
TYRO3 #4 — log2 vehicle/camptothecin viability = 0.296; call = inactive
PACSIN2 #1 — log2 vehicle/camptothecin viability = 0.448; call = inactive
PACSIN2 #2 — log2 vehicle/camptothecin viability = -0.43; call = inactive
PACSIN2 #3 — log2 vehicle/camptothecin viability = 0.152; call = inactive
PACSIN2 #4 — log2 vehicle/camptothecin viability = 0.108; call = inactive

Records above whose gene name begins with R or r:
RAB18 #1 — log2 vehicle/camptothecin viability = -0.213; call = inactive
RAB18 #2 — log2 vehicle/camptothecin viability = -0.149; call = inactive
RAB18 #3 — log2 vehicle/camptothecin viability = 0.33; call = inactive
